Assay results taken from paper PMC3630112.

Key:
[1] = target: T1, Flag-tagged Edc3 (mouse) (UniProt Q8K2D3); assay: co-IP; GFP-tagged Dcp1a (full length or deletion constructs) co-expressed with Flag-Ddx6, Flag-Edc3 or Flag-Dcp2 in HEK 293T cells; IP with anti-Flag M2 beads in NET buffer, 4°C, 2 h; western blot with anti-GFP and anti-Flag
T1 sequence: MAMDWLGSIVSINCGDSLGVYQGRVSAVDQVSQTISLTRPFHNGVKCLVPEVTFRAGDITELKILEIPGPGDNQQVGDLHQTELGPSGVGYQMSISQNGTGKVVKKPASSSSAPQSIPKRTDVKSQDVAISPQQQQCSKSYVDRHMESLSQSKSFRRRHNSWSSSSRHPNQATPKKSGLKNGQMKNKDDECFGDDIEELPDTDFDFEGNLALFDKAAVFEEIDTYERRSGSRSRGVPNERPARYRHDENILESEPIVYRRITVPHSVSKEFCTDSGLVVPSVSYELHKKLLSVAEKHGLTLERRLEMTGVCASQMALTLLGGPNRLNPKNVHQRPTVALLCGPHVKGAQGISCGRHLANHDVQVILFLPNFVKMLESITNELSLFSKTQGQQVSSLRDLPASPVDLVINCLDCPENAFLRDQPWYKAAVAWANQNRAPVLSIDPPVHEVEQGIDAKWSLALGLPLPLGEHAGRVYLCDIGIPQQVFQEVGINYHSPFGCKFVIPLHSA

[2] = target: T2, Flag-tagged Ddx6 (mouse) (UniProt P54823); assay: as above
T2 sequence: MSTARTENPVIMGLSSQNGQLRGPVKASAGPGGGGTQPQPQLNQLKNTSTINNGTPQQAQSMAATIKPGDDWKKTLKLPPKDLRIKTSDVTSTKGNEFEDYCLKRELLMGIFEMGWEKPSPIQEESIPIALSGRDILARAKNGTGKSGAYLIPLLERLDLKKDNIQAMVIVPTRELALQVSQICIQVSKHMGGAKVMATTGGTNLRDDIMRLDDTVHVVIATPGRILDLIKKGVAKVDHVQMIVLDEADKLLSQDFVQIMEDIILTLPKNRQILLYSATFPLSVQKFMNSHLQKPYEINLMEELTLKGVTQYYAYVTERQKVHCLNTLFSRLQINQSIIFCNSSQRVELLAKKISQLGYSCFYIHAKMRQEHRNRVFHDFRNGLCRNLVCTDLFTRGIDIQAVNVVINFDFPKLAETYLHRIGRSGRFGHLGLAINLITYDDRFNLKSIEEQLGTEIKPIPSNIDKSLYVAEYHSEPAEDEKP

[3] = target: Flag-tagged Dcp1a (wild type) (mouse); assay: co-IP; Flag-tagged Dcp1a co-expressed with HA-tagged CA or DN MAPKK1 in HEK 293T cells; IP with M2 beads; western blot with anti-Ddx6, anti-Edc3, anti-Edc4 (endogenous proteins)
[4] = target: Flag-Dcp1a(S315D/S319D) (mouse); assay: co-IP; Myc-tagged Dcp2 and Flag-tagged wild-type or mutant Dcp1a co-expressed in HEK 293T cells (Fig. S3: also with HA-tagged CA MAPKK1); IP by anti-Flag; western blot with anti-Myc, anti-Flag, anti-Edc3, anti-Edc4
[5] = target: Flag-Dcp1a(S315A/S319A) (mouse); assay: as above
[6] = target: Flag-tagged Dcp1a (wild type) (mouse); assay: as above
[7] = target: endogenous mouse Dcp1a (3T3-L1 cells) (mouse (endogenous in 3T3-L1)); assay: co-IP; endogenous proteins; extracts of 3T3-L1 cells, control or induced to differentiate for 1 h, with or without 20 µM U0126; IP with anti-Dcp1a and protein A-Sepharose; western blot with anti-Ddx6, anti-Edc3, anti-Edc4, anti-HuR

binding [1]: binds | binding [2]: binds
Molecule: GFP-Dcp1a(111–274) (mouse) (domain or fragment)

binding [1]: no binding | binding [2]: no binding
Molecule: GFP-Dcp1a Δ111–274 mutant (mouse) (domain or fragment)

binding [3]: binds | binding [4]: binds | binding [5]: binds | binding [6]: binds
B1: endogenous Edc4 (HEK 293T cells) (protein, UniProt Q6P2E9 1-1401)
chain: MASCASIDIEDATQHLRDILKLDRPAGGPSAESPRPSSAYNGDLNGLLVPDPLCSGDSTSANKTGLRTMPPINLQEKQVICLSGDDSSTCIGILAKEVEIVASSDSSISSKARGSNKVKIQPVAKYDWEQKYYYGNLIAVSNSFLAYAIRAANNGSAMVRVISVSTSERTLLKGFTGSVADLAFAHLNSPQLACLDEAGNLFVWRLALVNGKIQEEILVHIRQPEGTPLNHFRRIIWCPFIPEESEDCCEESSPTVALLHEDRAEVWDLDMLRSSHSTWPVDVSQIKQGFIVVKGHSTCLSEGALSPDGTVLATASHDGYVKFWQIYIEGQDEPRCLHEWKPHDGRPLSCLLFCDNHKKQDPDVPFWRFLITGADQNRELKMWCTVSWTCLQTIRFSPDIFSSVSVPPSLKVCLDLSAEYLILSDVQRKVLYVMELLQNQEEGHACFSSISEFLLTHPVLSFGIQVVSRCRLRHTEVLPAEEENDSLGADGTHGAGAMESAAGVLIKLFCVHTKALQDVQIRFQPQLNPDVVAPLPTHTAHEDFTFGESRPELGSEGLGSAAHGSQPDLRRIVELPAPADFLSLSSETKPKLMTPDAFMTPSASLQQITASPSSSSSGSSSSSSSSSSSLTAVSAMSSTSAVDPSLTRPPEELTLSPKLQLDGSLTMSSSGSLQASPRGLLPGLLPAPADKLTPKGPGQVPTATSALSLELQEVEPLGLPQASPSRTRSPDVISSASTALSQDIPEIASEALSRGFGSSAPEGLEPDSMASAASALHLLSPRPRPGPELGPQLGLDGGPGDGDRHNTPSLLEAALTQEASTPDSQVWPTAPDITRETCSTLAESPRNGLQEKHKSLAFHRPPYHLLQQRDSQDASAEQSDHDDEVASLASASGGFGTKVPAPRLPAKDWKTKGSPRTSPKLKRKSKKDDGDAAMGSRLTEHQVAEPPEDWPALIWQQQRELAELRHSQEELLQRLCTQLEGLQSTVTGHVERALETRHEQEQRRLERALAEGQQRGGQLQEQLTQQLSQALSSAVAGRLERSIRDEIKKTVPPCVSRSLEPMAGQLSNSVATKLTAVEGSMKENISKLLKSKNLTDAIARAAADTLQGPMQAAYREAFQSVVLPAFEKSCQAMFQQINDSFRLGTQEYLQQLESHMKSRKAREQEAREPVLAQLRGLVSTLQSATEQMAATVAGSVRAEVQHQLHVAVGSLQESILAQVQRIVKGEVSVALKEQQAAVTSSIMQAMRSAAGTPVPSAHLDCQAQQAHILQLLQQGHLNQAFQQALTAADLNLVLYVCETVDPAQVFGQPPCPLSQPVLLSLIQQLASDLGTRTDLKLSYLEEAVMHLDHSDPITRDHMGSVMAQVRQKLFQFLQAEPHNSLGKAARRLSLMLHGLVTPSLP

binding [7]: binds
B2: endogenous Edc3 (3T3-L1 cells) (protein, UniProt Q8K2D3 1-508)
chain: T1 sequence

No constants are given. Whether binding was seen depends on the method and setting. Binding seen in cells or lysates may run through a third protein. Binding calls can cover weak binding; strength is not graded here. For part of these data: Where a sequence is shown, tags or fusion partners need not be part of it. One block for each molecule: values may come before it.
